# Results deposited as PubChem BioAssay AID504764 (Drosophila RNAi Screening Center, 2011).
# Assay: 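Genes whose knock-down alters Notch-dependent transcription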 (primary screen)
# Cells: Drosophila Kc167 cells
# Reagents: long dsRNA against Drosophila genes
# Timing: about 5 days (4 days dsRNA, then 24 h after transfection)
# Challenge: transfection of constitutively active membrane-tethered Notch lacking the extracellular domain, read 24 h later
# Read-out: 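Light from a Notch-responsive E(spl)m3 luciferase reporter under active Notch, with control-promoter and no-Notch reporter wells to normalise; raw counts from paired wells a and b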
# Direction: induced reporter light, run 1, well a and induced reporter light, run 1, well b: higher = more light from the Notch target reporter with active Notch; control promoter light, run 1, well a and control promoter light, run 1, well b: higher = more light from the viral control promoter (cell number, transfection, viability); uninduced reporter light, run 1, well a: higher = more light from the Notch target reporter without active Notch
# Call rule: 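Wells with low control signal or poorly matching duplicates excluded; duplicates averaged; per source plate, z beyond ±2 for induced/control log2 ratio or beyond ±1.8 for induced/uninduced marks a hit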
# Meaning of the calls: active = modifier hit (raised or lowered Notch signal); inactive = not a hit
# In all, the deposit lists about 22,000 reagents; this is an unselected part of those with a known target gene and a result. In the full data, 403 (1.9%) were called active. 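Unnormalised raw counts per well; ratio z-scores behind the hit calls and whether each hit raises or lowers signal are not deposited.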 Names joined by + are all predicted targets of the reagent. No sequences are given here. Not given: the amount of reagent.
target,PubChem SID,"induced reporter light, run 1, well a","induced reporter light, run 1, well b","control promoter light, run 1, well a","control promoter light, run 1, well b","uninduced reporter light, run 1, well a",Outcome
Spt (Spitting Image),SID104186915,2.22e5,1.96e5,2.53e5,2.62e5,18740,inactive
mRpL44 (mitochondrial ribosomal protein L44),SID104192098,1.11e5,1.32e5,67750,71685,7555,inactive
Mdr65 (Multi drug resistance 65),SID104191012,3.51e5,2.05e5,2.67e5,2.44e5,11345,inactive
CG31431,SID104194381,1.91e5,1.75e5,2.18e5,2.08e5,12855,inactive
CG7366,SID104190617,1.84e5,1.82e5,3.08e5,2.72e5,17890,inactive
CG9631,SID104193929,1.40e5,98645,1.12e5,1.08e5,8910,inactive
Apt1 (Acyl-protein thioesterase 1),SID104190140,1.48e5,1.40e5,1.54e5,1.27e5,7105,inactive
M6,SID104191661,1.06e5,94830,1.06e5,91770,6460,inactive
Ype (Yippee),SID104200093,1.09e5,1.16e5,1.33e5,1.20e5,8085,inactive
Cyp6d5 (Cytochrome P450 6d5),SID104196426,1.49e5,1.64e5,88270,83725,10480,inactive
Eip78C (Ecdysone-induced protein 78C),SID104191656,10785,11680,10945,11292,3880,inactive
Glyp (Glycogen phosphorylase),SID104180544,2.01e5,1.93e5,2.72e5,2.92e5,11955,inactive
CG13039,SID104189712,2.70e5,1.70e5,2.41e5,2.39e5,5710,inactive
Pgant6 (Polypeptide N-Acetylgalactosaminyltransferase 6),SID104188344,1.05e5,1.19e5,1.76e5,2.29e5,8120,inactive
Acp53C14a (Accessory gland protein 53C14a),SID104187016,72840,52715,53840,58150,6140,inactive
CG9380,SID104184341,2.19e5,2.20e5,2.22e5,2.46e5,17195,inactive
Srp54k (Signal recognition particle 54k),SID104191081,1.51e5,1.26e5,1.64e5,1.63e5,7135,inactive
sip1 (septin interacting protein 1),SID104183401,27950,28740,19515,21050,2080,inactive
sip1 (septin interacting protein 1),SID104202051,,,,,,inactive
"Caf1-55 (Chromatin assembly factor 1, p55 subunit)",SID104196388,15032,11500,12825,15455,1885,inactive
MME1 (Mitochondrial Magnesium Exporter 1),SID104182506,1.86e5,1.81e5,2.31e5,2.03e5,16320,inactive
CG13055,SID104189728,1.59e5,2.12e5,2.19e5,1.79e5,9828,inactive
CG32198,SID104189345,1.50e5,1.51e5,1.83e5,1.62e5,16525,inactive
CG1578,SID104199521,1.90e5,1.45e5,2.33e5,1.92e5,11260,inactive
Sgs7 (Salivary gland secretion 7),SID104191073,1.63e5,1.91e5,2.69e5,1.65e5,9510,inactive
CG42306 + Gint3,SID104186726,60720,76245,1.01e5,98835,4510,inactive
Obp56d (Odorant-binding protein 56d),SID104185856,1.37e5,89495,1.15e5,97740,6730,inactive

Continued; the last 5 above are carried over.
target,PubChem SID,"induced reporter light, run 1, well a","induced reporter light, run 1, well b","control promoter light, run 1, well a","control promoter light, run 1, well b","uninduced reporter light, run 1, well a",Outcome
CG32198,SID104189345,1.50e5,1.51e5,1.83e5,1.62e5,16525,inactive
CG1578,SID104199521,1.90e5,1.45e5,2.33e5,1.92e5,11260,inactive
Sgs7 (Salivary gland secretion 7),SID104191073,1.63e5,1.91e5,2.69e5,1.65e5,9510,inactive
CG42306 + Gint3,SID104186726,60720,76245,1.01e5,98835,4510,inactive
Obp56d (Odorant-binding protein 56d),SID104185856,1.37e5,89495,1.15e5,97740,6730,inactive
CG33506,SID104185773,1.94e5,1.93e5,2.27e5,1.91e5,17360,inactive
CG18343,SID104186518,99960,84555,1.39e5,1.81e5,12310,active
Tig (Tiggrin),SID104183248,1.52e5,1.38e5,1.64e5,1.71e5,9905,inactive
CG14982,SID104188232,17275,15565,16175,17865,3160,inactive
CG34050 (retired record),SID104188859,3575,2565,4060,4255,2730,inactive
CG13991,SID104182115,75015,58500,72240,70630,4650,inactive
qm (quemao),SID104191178,2.56e5,2.36e5,2.76e5,3.08e5,12255,inactive
BEAF-32 + CG42254 (retired record),SID104185295,1.87e5,1.97e5,2.75e5,2.68e5,16200,inactive
CG9777,SID104200000,1.38e5,1.11e5,1.45e5,1.12e5,14755,inactive
Rap1 (Rap1 GTPase),SID104188478,82870,84180,1.60e5,2.05e5,7445,inactive
CG3739,SID104195302,1.97e5,1.83e5,2.34e5,2.34e5,14835,inactive
RhoGAP93B (Rho GTPase activating protein at 93B),SID104195280,1.62e5,1.39e5,1.60e5,1.71e5,12615,inactive
CG32801,SID104197756,1.03e5,1.04e5,1.71e5,1.69e5,7360,inactive
Socs44A (Suppressor of Cytokine Signaling at 44A),SID104186620,1.84e5,1.99e5,2.45e5,2.26e5,17550,inactive
MESK2 (Misexpression suppressor of KSR 2),SID104184050,67020,45895,40205,56550,3155,inactive
CG6766,SID104182783,1.42e5,1.44e5,1.53e5,1.55e5,10960,inactive
CG32815,SID104197969,1.01e5,1.24e5,1.80e5,1.84e5,7620,inactive
Tsp66A + CG42661 + CG42660,SID104190025,2.18e5,1.97e5,2.43e5,1.95e5,9555,inactive
CG4716,SID104186676,1.39e5,1.70e5,1.48e5,1.70e5,12605,inactive
Cyp4e1 (Cytochrome P450 4e1),SID104187162,2.06e5,1.88e5,2.36e5,2.13e5,18080,inactive
Obp47a (Odorant-binding protein 47a),SID104186047,1.92e5,1.87e5,2.08e5,2.07e5,14750,inactive
mfr (misfire),SID104190335,2.32e5,1.95e5,2.51e5,2.60e5,11405,inactive
CG17598,SID104200428,1.19e5,85050,68785,47890,10095,inactive
Mmp1 (Matrix metalloproteinase 1),SID104184285,1.52e5,1.15e5,1.41e5,1.67e5,11595,inactive
CARPA (Carbonic anhydrase-related protein A),SID104197697,1.63e5,1.35e5,2.85e5,2.58e5,10178,inactive
CARPA (Carbonic anhydrase-related protein A),SID104201326,,,,,,inactive
CG18132,SID104180310,1.11e5,1.20e5,1.13e5,72335,10480,inactive
retm (real-time),SID104183044,1.68e5,1.84e5,1.70e5,1.38e5,15905,inactive
Vajk3,SID104181675,1.92e5,2.35e5,1.87e5,1.97e5,16905,inactive
Mst27D (Male specific transcript 27D),SID104180759,1.48e5,1.21e5,2.18e5,2.10e5,10270,inactive
DnaJ-H (DnaJ homolog),SID104183065,1.56e5,1.90e5,1.42e5,1.58e5,14290,inactive
CG12432 (retired record),SID104199247,63630,68990,91230,79885,9040,inactive
Pi3K68D (Phosphatidylinositol 3-kinase 68D),SID104191045,1.10e5,1.01e5,93720,39395,9200,inactive
CG33958,SID104186264,72460,80565,84460,1.00e5,6870,inactive
CG33958,SID104186736,1.43e5,1.16e5,1.50e5,1.08e5,11815,inactive
E(var)3-9 (Enhancer of variegation 3-9),SID104194243,65315,85980,63730,41935,8215,inactive
CG12716,SID104199285,1.24e5,1.15e5,2.47e5,2.02e5,10025,inactive
